Assay results reported in patent US8030341B2 (priority 2005, dated 2011).
HELM strings list residues between dots; [ac] is acetyl, [am] amide, other brackets name non-standard units.

Assay: general procedure: solution-phase peptide synthesis; PyBop/DIPEA
Conditions: coupling step

Row | Substance | step yield (HCl) [%] | step yield (HCl salt) [%]
1 | PEPTIDE1{[N,N-diallyl-Tyr].P.F.F.[am]}$$$$V2.0 | 73.8 | –
2 | PEPTIDE1{[N-allyl-Dmt].P.F.F.[am]}$$$$V2.0 | – | 70
3 | [N-Boc-N-allyl-Tyr]EM-2 | – | 80
